Data published in patent publication US20130053310A1 (NOVO NORDISK A/S, priority 2010, published 2013).

Assay: general procedure: Fmoc solid-phase peptide synthesis; pre-loaded low-load Wang resin (e.g. Fmoc-Thr(tBu)-Wang LL, 0.27 mmol/g) for C-terminal acids; PAL-ChemMatrix for C-term
Settings: whole synthesis, UPLC

[Arg^25, Leu^27, Glu^28]-Glucagon
final HPLC purity: 100%

[Arg^25, Leu^27]-Glucagon
final HPLC purity (run 1): 98%
final HPLC purity (run 2): 100%

[Glu^15, Glu^21, Arg^25, Leu^27]-Glucagon
final HPLC purity (run 1): 100%
final HPLC purity (run 2): 98%

[Glu^21, Arg^25, Leu^27, Ser^28]-Glucagon
final HPLC purity (run 1): 97%
final HPLC purity (run 2): 100%

[Glu^21, Arg^25, Leu^27]Glucagon
final HPLC purity (run 1): 98%
final HPLC purity (run 2): 100%

[Glu^21, Lys^25, Leu^27]-Glucagon
final HPLC purity (run 1): 98%
final HPLC purity (run 2): 100%

[His^25, Leu^27]-Glucagon
final HPLC purity: 96%

[Lys^25, Leu^27]-Glucagon
final HPLC purity (run 1): 98%
final HPLC purity (run 2): 100%
